Some of the results follow. Single values are uncertain, as repeats are few or missing.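 The apoptosis fraction was the count of cleaved-PARP antibody-stained nuclei relative to all DNA-stained nuclei, imaged in 1,536-well plates. Screening doses were set so most cells survived, and baseline and induced cleaved-PARP levels vary greatly across cell lines.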
What was measured:
Assay in all cases: cleaved PARP positive nuclei fraction relative to DMSO control; melanoma cells; higher = more apoptosis
Settings in all cases: library dose: low library concentration; 72 h
501Mel = system: 501Mel
A101D = system: A101D
A2058 = system: A2058
A375 = system: A375
C32 = system: C32
CBRC013 = system: CBRC013 (line from a melanoma biopsy)
CBRC014 = system: CBRC014 (line from a melanoma biopsy)
CBRC016 = system: CBRC016 (line from a melanoma biopsy)
CBRC017 = system: CBRC017 (line from a melanoma biopsy)
CBRC008 = system: CBRC008 (line from a melanoma biopsy)

Row | Structure (SMILES) | cleaved PARP positive nuclei fraction (501Mel) | cleaved PARP positive nuclei fraction (A101D) | cleaved PARP positive nuclei fraction (A2058) | cleaved PARP positive nuclei fraction (A375) | cleaved PARP positive nuclei fraction (C32) | cleaved PARP positive nuclei fraction (CBRC013) | cleaved PARP positive nuclei fraction (CBRC014) | cleaved PARP positive nuclei fraction (CBRC016) | cleaved PARP positive nuclei fraction (CBRC017) | cleaved PARP positive nuclei fraction (CBRC008)
1 | Cc1cc(SCc2sc(-c3ccc(C(F)(F)F)c(F)c3)nc2C)ccc1OCC(=O)O + c1cc(-c2cnn3cc(-c4ccc(OCCN5CCCCC5)cc4)cnc23)ccn1 [Dorsomorphin] (first compound 2 µM, partner dose 0.4 µM) | 98.9% | 114% | 114% | 168% | 201% | 103% | 104% | 109% | 86.4% | –
2 | C[As](C)SC[C@H](NC(=O)CC[C@H](N)C(=O)O)C(=O)NCC(=O)O [Darinaparsin] + O=C(Nc1ccccc1)c1cc([N+](=O)[O-])ccc1Cl [GW9662] (first compound 0.4 µM, partner dose 2 µM) | 164% | 115% | 86.9% | 163% | 74.4% | 64.1% | 94.1% | 148% | 72% | –
3 | C[As](C)SC[C@H](NC(=O)CC[C@H](N)C(=O)O)C(=O)NCC(=O)O [Darinaparsin] + COC(=O)c1sccc1S(=O)(=O)Nc1ccc(Nc2ccccc2)cc1OC [GSK0660] (first compound 0.4 µM, partner dose 1 µM) | 34.8% | 121% | 99.5% | 139% | 63.5% | 291% | 108% | 82.1% | 95.6% | –
4 | O=C(Oc1ccc([N+](=O)[O-])cc1)N1CCC(C(O)(c2ccc3c(c2)OCO3)c2ccc3c(c2)OCO3)CC1 + CC(C)CCN1c2nc(Nc3cc(F)c(O)c(F)c3)ncc2N(C)C(=O)C1C [BID1870] (first compound 1 µM, partner dose 0.2 µM) | 48.3% | 65.7% | 91.8% | 47.4% | 59.9% | 81.7% | 117% | 34.7% | 83.5% | –
5 | COCC[n+]1c2c(n(Cc3cnccn3)c1C)C(=O)c1ccccc1C2=O + C/C(O)=C(\C#N)C(=O)Nc1cc(Br)ccc1Br [LFM-A13] (first compound 0.0004 µM, partner dose 2 µM) | 56.9% | 106% | 73.7% | 560% | 197% | 71.5% | 101% | 97.8% | 77.7% | –
6 | Oc1nc(-c2ccc(C(F)(F)F)cc2)nc2c1CSCC2 + O=C(Oc1ccc([N+](=O)[O-])cc1)N1CCC(C(O)(c2ccc3c(c2)OCO3)c2ccc3c(c2)OCO3)CC1 [JZL184] (first compound 2 µM, partner dose 1 µM) | 86.7% | 166% | 172% | 90.4% | 60.6% | 46.2% | 175% | 64.4% | 78.3% | –
7 | COc1ccc2c(c1)CCC1C2CCC2(C)C(NCCCCCCN3C(=O)C=CC3=O)CCC12 (stereo not given) + Cc1cc(SCc2sc(-c3ccc(C(F)(F)F)c(F)c3)nc2C)ccc1OCC(=O)O [GW0742] (first compound 0.4 µM, partner dose 2 µM) | 32.2% | 107% | 187% | 177% | 97.3% | 45.6% | 108% | 113% | 167% | –
8 | COc1cc2c(Oc3ccc4[nH]c(C)cc4c3F)ncnc2cc1OCCCN1CCCC1 [cediranib] + O=C(Oc1ccc([N+](=O)[O-])cc1)N1CCC(C(O)(c2ccc3c(c2)OCO3)c2ccc3c(c2)OCO3)CC1 [JZL184] (first compound 0.4 µM, partner dose 1 µM) | 73.4% | 149% | 77.3% | 35.6% | 120% | 295% | 129% | 104% | 63% | –
9 | CO[C@@H]1[C@H](N(C)C(=O)c2ccccc2)C[C@H]2O[C@]1(C)n1c3ccccc3c3c4c(c5c6ccccc6n2c5c31)C(=O)NC4 [Midostaurin] + C/C(O)=C(\C#N)C(=O)Nc1cc(Br)ccc1Br [LFM-A13] (first compound 0.08 µM, partner dose 2 µM) | 134% | 331% | 69.2% | 75.7% | 157% | 35.6% | 104% | 173% | 201% | –
10 | O=C(Nc1ccccc1)c1cc([N+](=O)[O-])ccc1Cl + C/C(O)=C(\C#N)C(=O)Nc1cc(Br)ccc1Br [LFM-A13] (first compound 2 µM, partner dose 2 µM) | 76.2% | 55.2% | 93.6% | 71.7% | 116% | 127% | 86.1% | 353% | 211% | –
11 | CC1(C)CCC(c2ccc(Cl)cc2)=C(CN2CCN(c3ccc(C(=O)NS(=O)(=O)c4ccc(N[C@H](CCN5CCOCC5)CSc5ccccc5)c(S(=O)(=O)C(F)(F)F)c4)cc3)CC2)C1 + O=C(Oc1ccc([N+](=O)[O-])cc1)N1CCC(C(O)(c2ccc3c(c2)OCO3)c2ccc3c(c2)OCO3)CC1 [JZL184] (first compound 0.4 µM, partner dose 1 µM) | 67% | 79.9% | 73.6% | – | 409% | – | 375% | 1420% | 462% | 337%
12 | Nc1cccc2c1CN(C1CCC(=O)NC1=O)C2=O (stereo not given) [lenalidomide] + O=C(Oc1ccc([N+](=O)[O-])cc1)N1CCC(C(O)(c2ccc3c(c2)OCO3)c2ccc3c(c2)OCO3)CC1 [JZL184] (first compound 1 µM, partner dose 1 µM) | 23.6% | 79.4% | 44.7% | 146% | 30.1% | 212% | 87.9% | 53.7% | 57.2% | –
13 | C#Cc1cccc(Nc2ncnc3cc(OCCOC)c(OCCOC)cc23)c1 [erlotinib] + O=C(Oc1ccc([N+](=O)[O-])cc1)N1CCC(C(O)(c2ccc3c(c2)OCO3)c2ccc3c(c2)OCO3)CC1 [JZL184] (first compound 0.8 µM, partner dose 1 µM) | 50.6% | 214% | 214% | 94.9% | 71.4% | 66.1% | 107% | 89.3% | 89.3% | –
14 | COCC[n+]1c2c(n(Cc3cnccn3)c1C)C(=O)c1ccccc1C2=O + Cc1cc(SCc2sc(-c3ccc(C(F)(F)F)c(F)c3)nc2C)ccc1OCC(=O)O [GW0742] (first compound 0.0004 µM, partner dose 2 µM) | 108% | 161% | 369% | 70.2% | 46.1% | 129% | 89.4% | 129% | 190% | –
15 | Cc1cc(SCc2sc(-c3ccc(C(F)(F)F)c(F)c3)nc2C)ccc1OCC(=O)O + O=C(O)C(=O)Nc1sc2c(c1C(=O)O)CCNC2 [TCS401] (first compound 2 µM, partner dose 1.66667 µM) | 34.5% | 118% | 77.6% | 83.3% | 69.5% | 23.7% | 62.6% | 73.5% | 73.1% | –
16 | Cn1cncc1[C@@](N)(c1ccc(Cl)cc1)c1ccc2c(c1)c(-c1cccc(Cl)c1)cc(=O)n2C [tipifarnib] + O=C(Oc1ccc([N+](=O)[O-])cc1)N1CCC(C(O)(c2ccc3c(c2)OCO3)c2ccc3c(c2)OCO3)CC1 [JZL184] (first compound 0.01 µM, partner dose 1 µM) | 65.6% | 118% | 46.6% | 28.7% | 43.9% | 310% | 94% | 67.6% | 90% | –
17 | Cc1nc(Nc2ncc(C(=O)Nc3c(C)cccc3Cl)s2)cc(N2CCN(CCO)CC2)n1 [dasatanib] + Cc1cc(SCc2sc(-c3ccc(C(F)(F)F)c(F)c3)nc2C)ccc1OCC(=O)O [GW0742] (first compound 0.004 µM, partner dose 2 µM) | 62.8% | 150% | 230% | 277% | 249% | 112% | 128% | – | 119% | –
18 | C/C(O)=C(\C#N)C(=O)Nc1cc(Br)ccc1Br + c1cc(-c2cnn3cc(-c4ccc(OCCN5CCCCC5)cc4)cnc23)ccn1 [Dorsomorphin] (first compound 2 µM, partner dose 0.4 µM) | 87.9% | 125% | 74.7% | 44.6% | 230% | 40.1% | 109% | 108% | 140% | –
19 | C[C@]1(c2nc3c(C(N)=O)cccc3[nH]2)CCCN1 [Veliparib] + Cc1cc(SCc2sc(-c3ccc(C(F)(F)F)c(F)c3)nc2C)ccc1OCC(=O)O [GW0742] (first compound 1.4 µM, partner dose 2 µM) | 245% | 55.9% | 137% | 89.8% | 180% | 43.8% | 89.2% | 77.9% | 129% | –
20 | C=CCn1c(=O)c2cnc(Nc3ccc(N4CCN(C)CC4)cc3)nc2n1-c1cccc(C(C)(C)O)n1 + O=C(Oc1ccc([N+](=O)[O-])cc1)N1CCC(C(O)(c2ccc3c(c2)OCO3)c2ccc3c(c2)OCO3)CC1 [JZL184] (first compound 0.02 µM, partner dose 1 µM) | 95.5% | 157% | 60.3% | 131% | 160% | 113% | 134% | 62.4% | 101% | –
21 | C/C(O)=C(\C#N)C(=O)Nc1cc(Br)ccc1Br + Cn1cc(/C=C2\C(=O)Nc3cccnc32)c2ccccc21 [GW441756] (first compound 2 µM, partner dose 0.4 µM) | 81.8% | 120% | 48.1% | 104% | 137% | 104% | 90.3% | 21.9% | 90.5% | –
22 | C[As](C)SC[C@H](NC(=O)CC[C@H](N)C(=O)O)C(=O)NCC(=O)O [Darinaparsin] + N#Cc1c(O)c2c(-c3ccc(-c4ccccc4O)cc3)csc2[nH]c1=O [A769662] (first compound 0.4 µM, partner dose 2 µM) | 77.6% | 157% | 68% | 49.9% | 99.8% | 74.1% | 91.7% | 82.3% | 78.1% | –
23 | OCc1c[nH]c2ccccc12 [Indole-3-carbinol] + C/C(O)=C(\C#N)C(=O)Nc1cc(Br)ccc1Br [LFM-A13] (first compound 0.8 µM, partner dose 2 µM) | 76.7% | 22.1% | 47.7% | – | 392% | – | 115% | 373% | 173% | 183%
24 | OCCn1cc(-c2cnc3nnn(Cc4ccc5ncccc5c4)c3n2)cn1 + C/C(O)=C(\C#N)C(=O)Nc1cc(Br)ccc1Br [LFM-A13] (first compound 1 µM, partner dose 2 µM) | 95.9% | 113% | 29.1% | 153% | 62.9% | 23.1% | 92.7% | 107% | 189% | –
25 | NC(=O)c1ccc(N(C(N)=O)c2c(F)cccc2F)nc1-c1ccc(F)cc1F + C[As](C)SC[C@H](NC(=O)CC[C@H](N)C(=O)O)C(=O)NCC(=O)O [Darinaparsin] (first compound 0.4 µM, partner dose 0.4 µM) | 104% | 89.1% | 81.7% | 68.1% | – | – | 105% | 118% | 95.8% | 47.9%
26 | C[As](C)SC[C@H](NC(=O)CC[C@H](N)C(=O)O)C(=O)NCC(=O)O [Darinaparsin] + Oc1nc(-c2ccc(C(F)(F)F)cc2)nc2c1CSCC2 [XAV939] (first compound 0.4 µM, partner dose 2 µM) | 75% | 246% | 128% | 199% | 28.9% | 129% | 88.4% | 45.3% | 57.9% | –

Single entries from above.
cleaved PARP positive nuclei fraction (C32) with Nc1cccc2c1CN(C1CCC(=O)NC1=O)C2=O (stereo not given) [lenalidomide] + O=C(Oc1ccc([N+](=O)[O-])cc1)N1CCC(C(O)(c2ccc3c(c2)OCO3)c2ccc3c(c2)OCO3)CC1 [JZL184] (first compound 1 µM, partner dose 1 µM) reads 30.1%
cleaved PARP positive nuclei fraction (CBRC008) with OCc1c[nH]c2ccccc12 [Indole-3-carbinol] + C/C(O)=C(\C#N)C(=O)Nc1cc(Br)ccc1Br [LFM-A13] (first compound 0.8 µM, partner dose 2 µM) reads 183%
